Among the data in patent US20200299395A1 (MOGAM INSTITUTE FOR BIOMEDICAL RESEARCH, published 2020) are binding values, retold here.

Amino acid sequences for entries named in this document (tags omitted). Residues count along the entry.
UniProt Q02223, residues 1-54: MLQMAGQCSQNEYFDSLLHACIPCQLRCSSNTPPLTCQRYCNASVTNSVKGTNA

Results are given in words; binding and its absence hold for the method and conditions named. Some binding calls cover weakened binding; strength is not graded here.

Sequences and labels used below:
B1: Clone MN8 (VH domain) (VHH)
VHH: EVQLVESGGGLVQPGGSLRLSCAASGFTFSSYAMGWVRQAPGKGPEVVSLISGSGGSTWYDDSVKGRFTISRDNSKNTLYLQMNSLRAEDTAVYYCASPEDAPSYSRWGQGTLVTVSS
notes: Single-domain antibody: a VH domain from a synthetic phage library, not camelid; Expressed in E. coli
B2: Clone MN19 (VH domain) (VHH)
VHH: EVQLVESGGGLVQPGGSLRLSCAASGFTFTTYYMGWVRQAPGKGPEWVSLISGDGSNTWYDDSVKGRFTISRDNSKNTLYLQMNSLRAEDTAVYYCARYDCLSPASYDYWGQGTLVTVSS
B3: Clone MN5 (VH domain) (VHH)
VHH: EVQLVESGGGLVQPGGSLRLSCAASGFTFSSYAMGWVRQAPGKGPEVVSLISGSGGSTWYDDSVKGRFTISRDNSKNTLYLQMNSLRAEDTAVYYCASREDNMTTWGQGTLVTVSS
notes: as for B1
B4: Clone MN7 (VH domain) (VHH)
VHH: EVQLVESGGGLVQPGGSLRLSCAASGFTFSSYAMGWVRQAPGKGPEVVSLISGSGGSTWYDDSVKGRFTISRDNSKNTLYLQMNSLRAEDTAVYYCASPEDMYQTWGQGTLVTVSS
notes: as for B1
B5: Clone MN10 (VH domain) (VHH)
VHH: EVQLVESGGGLVQPGGSLRLSCAASGFTFSSYAMGWVRQAPGKGPEVVSLISGSGGSTWYDDSVKGRFTISRDNSKNTLYLQMNSLRAEDTAVYYCASYLRPRTEAHNTWGQGTLVTVSS
B6: Clone MN1 (VH domain) (VHH)
VHH: EVQLVESGGGLVQPGGSLRLSCAASGFTFTAYDMGWVRQAPGKGPEWVSLISSDSGDTWYDDSVKGRFTISRDNSKNTLYLQMNSLRAEDTAVYYCARLGAYSTTYDYWGQGTLVTVSS
notes: as for B1
B7: Clone MN2 (VH domain) (VHH)
VHH: EVQLVESGGGLVQPGGSLRLSCAASGFTFTNYDMGWVRQAPGKGPEWVSLISGGSETWYDDSVKGRFTISRDNSKNTLYLQMNSLRAEDTAVYYCAKMETSHTNDTDYWGQGTLVTVSS

For this test, the target named is human BCMA (BCMA antigen coated on the ELISA plate) (human) (UniProt Q02223). In words: ELISA, E. coli supernatant on BCMA-coated plate. (In general: ELISA stands for enzyme-linked immunosorbent assay.)
In the case of B1, the binding entry is given as “binds”. Turning to B2, the binding entry was “binds”. On to B3, for which the binding result is given as “binds”. For B4, the binding result is “binds”.

Regarding B5, the binding result is “binds”. On to B6, for which the binding entry is on record as “binds”. In the case of B7, the binding entry is on record as “binds”.
